Measurements taken from the supplement of paper PMC10735217.
The list shows a part of the results. Single values are uncertain here, since repeats match poorly.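 The human kidney-derived cells carry a stably integrated construct of eight TEAD-binding elements driving luciferase, read by luminescence in a drug-repurposing library screen. A compound counts as a hit when its signal is more than five robust Z scores above the plate mean.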

System: HEK293A TEAD-LUC reporter
Test: TEAD-luciferase reporter activity (YAP activation), robust Z score vs plate; higher = stronger YAP/TEAD activation
Settings: 24 h

Row | SMILES | TEAD-luciferase reporter activity (compound concentration: 200 nM) | TEAD-luciferase reporter activity (compound concentration: 2 uM) | TEAD-luciferase reporter activity (compound concentration: 10 uM)
1 | CC(C)CCOc1ccc(NC(=S)Nc2ccc(OCCC(C)C)cc2)cc1 | inactive: -2.65 | inactive: -0.407 | inactive: -0.256
2 | COc1cc(C(C)=O)ccc1O [Apocynin] | inactive: -0.95 | inactive: -1.87 | inactive: 2.4
3 | OC(CNc1ccccc1)CN1CCN(CCCC(c2ccc(F)cc2)c2ccc(F)cc2)CC1 (centres undefined) | inactive: -1.84 | inactive: 0.692 | inactive: 3.1
4 | CCCCCCC1(C(=O)OC)CO1 (centres undefined) | inactive: -1.19 | inactive: -0.762 | inactive: -0.983
5 | Nc1ccc(S(=O)(=O)O)cc1 | inactive: -1.13 | inactive: -0.418 | inactive: -0.0155
6 | CS(=O)(=O)OCC(OS(C)(=O)=O)C(O)C(O)C(COS(C)(=O)=O)OS(C)(=O)=O (centres undefined) | inactive: -1.06 | inactive: -0.268 | inactive: -0.0909
7 | OCC(O)CN1CCN(c2ccccc2)CC1 (centres undefined) [levodropropizine] | inactive: -1.51 | inactive: -1.14 | inactive: -0.399
8 | COc1ccc2[nH]c3c(c2c1)CCN[C@]31CS[C@@H]2c3c(OC(C)=O)c(C)c4c(c3[C@H](COC1=O)N1[C@@H]2[C@H]2c3c(cc(C)c(OC)c3O)C[C@@H]([C@@H]1O)N2C)OCO4 [Lurbinectedin] | inactive: -1.34 |  | inactive: 0.881
9 | COc1ncc(-c2nc3c(n2C(C)C)[C@H](c2ccc(Cl)cc2)N(c2cc(Cl)cn(C)c2=O)C3=O)c(OC)n1 | inactive: 0.666 | inactive: -0.712 | inactive: 3.89
10 | COCCCN1CC[C@H](CNC(=O)c2cc(Cl)c(N)c3c2OCC3)[C@@H](O)C1 | inactive: 0.235 | inactive: -0.768 | inactive: -0.583
11 | N[C@@H](Cc1ccc(B(O)O)cc1)C(=O)O [Boronophenylalanine] | inactive: -0.935 | inactive: -1.17 | inactive: -0.556
12 | COC(=O)C1=C(C)NC(C)=C(C(=O)OC/C=C/c2ccc(Cn3ccnc3)cc2)C1c1cccc([N+](=O)[O-])c1 (centres undefined) | inactive: -1.05 | inactive: -1.93 | inactive: -1.92
13 | Cc1ccc(NC(=O)c2nc[nH]c2C)cc1Cl | active: 9.67 | inactive: 1.96 | inactive: 0.95
14 | COc1ccc(-c2ccc(S(=O)(=O)NC(CC(C)C)C(=O)O)cc2)cc1 (centres undefined) | inactive: -0.673 | inactive: -1.74 | inactive: -0.73
15 | CC(C)(C)C(=O)c1ccc(C(=O)O)cc1 | inactive: -2.57 | inactive: -0.203 | inactive: -0.468

2 entries drawn at random from the list so far, as already listed:
Row | SMILES | TEAD-luciferase reporter activity (compound concentration: 200 nM) | TEAD-luciferase reporter activity (compound concentration: 2 uM) | TEAD-luciferase reporter activity (compound concentration: 10 uM)
4 | CCCCCCC1(C(=O)OC)CO1 (centres undefined) | inactive: -1.19 | inactive: -0.762 | inactive: -0.983
13 | Cc1ccc(NC(=O)c2nc[nH]c2C)cc1Cl | active: 9.67 | inactive: 1.96 | inactive: 0.95
